## Assay results

From PubChem BioAssay record AID1345084 (NCATS, 2018).

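A panel of named gynecologic cancer cell lines (ovarian and cervical) is scored for viability by ATP-dependent luminescence after 48 hours of compound exposure.
Each compound was tested at five concentrations, including 0.46, 2.3 and 57.5 µM as the top dose.
The number is the fitted AC50 potency, and a lower value means stronger cell killing.
Calls follow an activity score built from curve class and fitted AC50: 40 to 100 is active, 1 to 39 is inconclusive, and 0 is inactive.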

Values are in µM.
All entries here are filed as inconclusive.
Only part of the assay is shown, chiefly results filed as inconclusive.
A potency from a partial, single-point or poor curve is only a rough figure.
The first word of each remark tells which way the curve ran; it can be opposite to the aim of the assay.
Activity scores are not listed here.

SMILES | tested on / at | fitted potency (µM) | curve as filed
CN(C)CC[C@@H](c1ccc(Br)cc1)c1ccccn1 | OV90 | 11.22 | cytotoxic, partial curve, poor fit
CN(C)Cc1c(C(=O)NCCOc2ccc(C(=O)NO)cc2)oc2ccccc12 | CAOV3 | 12.59 | cytotoxic, partial curve, poor fit
CC(C)NCC(O)c1ccc2ccccc2c1 (centres unmarked) | SKOV3 | 31.62 | rising, single point
COC(=O)C1=CO[C@@H](O[C@@H]2O[C@H](CO)[C@@H](O)[C@H](O)[C@H]2O)[C@H]2[C@@H]1[C@H](O)C[C@]2(C)O | SKOV3 | 0.7079 | rising, full curve, poor fit
CNC(=O)CN1CCC(Oc2cc3c(Nc4cccc(Cl)c4F)ncnc3cc2OC)CC1 | CASKI | 10 | cytotoxic, partial curve, poor fit
CNC(=O)CN1CCC(Oc2cc3c(Nc4cccc(Cl)c4F)ncnc3cc2OC)CC1 | C33A | 7.943 | cytotoxic, full curve, poor fit
C1CCN2C[C@@H]3C[C@@H](CN4CCCC[C@@H]34)[C@H]2C1 | OV90 | 25.12 | cytotoxic, single point
COc1cc(/C=C/C(=O)N2CCN(CC(=O)N3CCCC3)CC2)cc(OC)c1OC | SKOV3 | 11.22 | rising, partial curve
Cc1ccc(Cl)c(O)c1 | CAOV3 | 3.548 | cytotoxic, single point
C[C@@H]1CC[C@@]23CC[C@]4(C)[C@@](C=CC5[C@@]6(C)CC[C@H](O)C(C)(C)C6CC[C@]54C)(OC2=O)C3[C@H]1C (some centres unmarked) | SKOV3 | 17.78 | rising, single point
COc1cc2c(cc1OC)N1C(=O)C[C@@]34C=CC[N@+]5([O-])CC[C@H]2[C@H](CC3)[C@@]145 | CAOV3 | 3.548 | rising, single point
Cc1[nH]c(/C=C2\C(=O)Nc3ccc(S(=O)(=O)N(C)c4cccc(Cl)c4)cc32)c(C)c1C(=O)N1CCN(C)CC1 | Tov112D | 25.12 | cytotoxic, single point
Nc1ccc(O)cc1 | HeLa | 10 | rising, partial curve, poor fit
Cc1onc(-c2ccccc2)c1-c1ccc(S(N)(=O)=O)cc1 | C33A | 39.81 | cytotoxic, single point
Cc1cn2cc(C(=O)N(C)CCO)cc(N[C@@H]3CCOc4cccc(C)c43)c2n1 | PA-1 | 22.39 | rising, single point
CC[C@H]1C[C@H]2[C@@H]3CCC4=CC(=O)CC[C@@H]4[C@H]3CC[C@]2(C)[C@H]1O | CAOV3 | 39.81 | rising, single point
CC[C@H]1C[C@H]2[C@@H]3CCC4=CC(=O)CC[C@@H]4[C@H]3CC[C@]2(C)[C@H]1O | Hek293T; control line for the selectivity index | 44.67 | cytotoxic, single point
CC[C@H]1C[C@H]2[C@@H]3CCC4=CC(=O)CC[C@@H]4[C@H]3CC[C@]2(C)[C@H]1O | C33A | 25.12 | cytotoxic, single point
CC[C@H]1C[C@H]2[C@@H]3CCC4=CC(=O)CC[C@@H]4[C@H]3CC[C@]2(C)[C@H]1O | HeLa | 3.981 | cytotoxic, partial curve, poor fit
CCN(CC)CCNC(=O)c1cc(S(C)(=O)=O)ccc1OC | Hek293T; control line for the selectivity index | 8.912 | rising, single point
CC1NC(=O)CNC(=O)C(C(C)C)NC(=O)C2CCCN2C(=O)C(C(C)C)NC(=O)C(Cc2c[nH]c3ccccc23)NC1=O (centres unmarked) | SKOV3 | 0.7943 | rising, partial curve, poor fit
COC(=O)C1=CO[C@@H](O[C@@H]2O[C@H](CO)[C@@H](O)[C@H](O)[C@H]2O)[C@H]2[C@@H]1[C@H](O)[C@H](O)[C@]2(C)O | SKOV3 | 14.13 | rising, single point
CCN(CCCc1ccccc1)CCCc1ccccc1 | CAOV3 | 35.48 | cytotoxic, partial curve, poor fit
Cc1cc(O)cc(O[C@@H]2O[C@H](CO)[C@@H](O)[C@H](O)[C@H]2O)c1 | SKOV3 | 39.81 | rising, single point

Some entries from above, unchanged:

{"smiles": "COC(=O)C1=CO[C@@H](O[C@@H]2O[C@H](CO)[C@@H](O)[C@H](O)[C@H]2O)[C@H]2[C@@H]1[C@H](O)[C@H](O)[C@]2(C)O", "tested on / at": "SKOV3", "fitted potency (µM)": "14.13", "curve as filed": "rising, single point"}
{"smiles": "CC[C@H]1C[C@H]2[C@@H]3CCC4=CC(=O)CC[C@@H]4[C@H]3CC[C@]2(C)[C@H]1O", "tested on / at": "HeLa", "fitted potency (µM)": "3.981", "curve as filed": "cytotoxic, partial curve, poor fit"}
{"smiles": "CC[C@H]1C[C@H]2[C@@H]3CCC4=CC(=O)CC[C@@H]4[C@H]3CC[C@]2(C)[C@H]1O", "tested on / at": "C33A", "fitted potency (µM)": "25.12", "curve as filed": "cytotoxic, single point"}